Patent publication US7056355B2, “Hair dye composition and dyeing method” (Kao Corporation, priority 2002, dated 2006)
Values joined by “and” are separate entries in the source; they are usually repeats but may differ in a detail not shown here. Identical values can stand only once. “Also recorded” adds a separate entry of the source.

How the values were obtained:
[1] = Dyeing performance in General Formulation A on undamaged white goat hair (colour, L, a, b, delta E); details: for L / a / b: after dyeing; for L / a / b / Delta E: 50° C. 15 min; for Delta E: before vs after colouring; for Color of Dyed Hair: pH 10, 50° C. for 15 min
[2] = Dyeing performance in General Formulation A on undamaged human blond hair (colour, L, a, b, delta E); details: undamaged human blonde hair; for L / a / b: after dyeing; for L / a / b / Delta E: 50° C. 15 min; for Delta E: before vs after colouring; for Color of Dyed Hair: pH 10, 50° C. for 15 min

| Compound | L [1] | a [1] | b [1] | Delta E [1] | Color of Dyed Hair [1] | L [2] | a [2] | b [2] | Delta E [2] | Color of Dyed Hair [2] |
| --- | --- | --- | --- | --- | --- | --- | --- | --- | --- | --- |
| CCOC(=O)Nc1cc(/N=N/c2ccc(S(C)(=O)=O)cc2C#N)c2c(NS(C)(=O)=O)cccc2c1O [Dye D-24] | 56 | −11 | −16 | 44 | Cyan | 43 | −6 | 7 | 16 | Olive Brown |
| COc1ccc(S(N)(=O)=O)cc1/N=N/C1C(=O)N(c2ccccc2)N=C1C#N [Dye D-29] | 80 | 3 | 70 | 56 | Bright Yellow | 54 | 7 | 35 | 20 | Bright Yellow |
| CS(=O)(=O)Nc1cccc2c(/N=N/c3ccc(S(C)(=O)=O)cc3C#N)ccc(O)c12 [Dye D-27] | 37 | 10 | −26 | 63 | Bright Blue | 32 | 2 | −4 | 23 | Blue |
| COc1ccc(/N=N/C2C(=O)N(c3ccc(S(N)(=O)=O)cc3)N=C2C#N)cc1 [Dye D-15] | 76 | 13 | 62 | 50 | Orange/Gold | 54 | 9 | 36 | 21 | Orange/Gold |
| COc1ccc(/N=N/C2C(=O)N(c3ccccc3)N=C2C#N)cc1 [Dye D-7] | 76 | 14 | 74 | 62 | Intense Gold | 53 | 10 | 44 | 28 | Intense Gold |
| CS(=O)(=O)c1cc([N+](=O)[O-])ccc1/N=N/c1ccc(O)c2cccc(S(=O)(=O)O)c12 [D*, reference compound] | 65 | −13 | 2 | 23 | Pale Cyan | 51 | 2 | 19 | 7 | Pale Blonde |
| COCCOc1ccc(/N=N/C2C(=O)N(c3ccccc3)N=C2C(N)=O)cc1S(N)(=O)=O [Dye D-9] | 83 | −2 | 57 | 44 | Bright Yellow | 56 | 6 | 30 | 16 | Bright Yellow |
| Cc1nn2nc(C)c(/N=N/c3cc(Cl)c(S(N)(=O)=O)cc3Cl)c2[nH]1 [Dye D-16] | 82 | 1 | 66 | 52 | Bright Yellow | 60 | 3 | 19 | 25 | Bright Yellow |
| N#CC(/N=N/c1ccc(C(=O)O)cc1)C(=O)c1ccccc1 (stereo not drawn) [C*, reference compound] | 87 | −6 | 31 | 19 | Pale Yellow | 52 | 6 | 25 | 12 | Pale Yellow |
| CC(C)C(=O)Nc1cc(/N=N/c2ccc(S(C)(=O)=O)cc2S(C)(=O)=O)ccc1O [Dye D-5] | 48 | 42 | −2 | 58 | Pink | 42 | 21 | 12 | 17 | Light Pink |
| COCCOc1ccc(/N=N/C2C(=O)N(c3ccccc3)N=C2C#N)cc1S(N)(=O)=O [Dye D-8] | 84 | −3 | 63 | 49 | Bright Yellow | 58 | 6 | 30 | 18 | Bright Yellow |
| CS(=O)(=O)c1ccc(/N=N/c2ccc(O)c3ccccc23)c(C#N)c1 [Dye D-25] | 38 | 8 | −5 | 51 | Ash Blue | 34 | 6 | 9 | 11 | Ash Blue |
| CCCN(CCC)S(=O)(=O)c1cc(/N=N/c2ccc(Cl)c(S(N)(=O)=O)c2)c2c(NS(C)(=O)=O)cccc2c1O [Dye D-2] | 51 | 44 | −10 | 60 | Bright Pink/Magenta | 39 | 21 | 8 | 18 | Pink/Red |
| N#CC1=NN(c2ccccc2)C(=O)C1/N=N/c1ccc(S(N)(=O)=O)cc1 [Dye D-6] | 81 | 0 | 72 | 58 and 59 | Bright Yellow; also recorded: Very Intense | 57 | 7 | 41 | 26 | Bright Yellow; also recorded: Very Intense |
| CS(=O)(=O)Nc1cccc2c(O)ccc(/N=N/c3ccc([N+](=O)[O-])cc3S(C)(=O)=O)c12 [Dye D-21] | 37 | −17 | −18 | 60 | Intense Cyan | 35 |  | −4 | 33 | Intense Cyan |
| CS(=O)(=O)Nc1cccc2c(O)c(C(=O)N3CCOCC3)cc(/N=N/c3ccc(Cl)cc3)c12 [Dye D-4] | 48 | 51 | −2 | 65 | Intense Pink | 33 | 31 | 9 | 28 | Pink |
| Cc1nn2nc(C(C)(C)C)c(/N=N/c3ccc(S(N)(=O)=O)cc3)c2[nH]1 [Dye D-19] | 82 | −4 | 66 | 52 | Intense Yellow | 64 | 4 | 26 | 20 | Intense Yellow |
| NS(=O)(=O)c1cccc(S(=O)(=O)Nc2cccc3c(O)ccc(/N=N/c4ccc([N+](=O)[O-])cc4)c23)c1 [Dye D-22] | 44 | −4 | −4 | 45 | Cyan | 36 | −2 | 7 | 15 | Olive Brown |
| CS(=O)(=O)c1cc([N+](=O)[O-])ccc1/N=N/c1cc(S(=O)(=O)Nc2ccccc2)c2ccccc2c1O [Dye D-23] | 44 | 9 | −22 | 56 | Blue | 36 | 2 | 1 | 17 | Ash Blue |
| Cc1nn2nc(C(C)(C)C)c(/N=N/c3cc(Cl)c(S(N)(=O)=O)cc3Cl)c2[nH]1 [Dye D-17] | 78 | 7 | 71 | 57 | Bright Gold | 56 | 6 | 36 | 22 | Bright Gold |
| Cc1cc(S(N)(=O)=O)c(C)cc1/N=N/C1C(=O)N(c2ccccc2C)N=C1C#N [Dye D-10] | 79 | 3 | 68 | 54 | Bright Gold Yellow | 56 | 6 | 36 | 22 | Bright Gold |
| N#CC1=NN(c2ccccc2)C(=O)C1/N=N/c1ccc(S(=O)(=O)[O-])cc1.[Na+] (stereo not drawn) [B*, reference compound] | 85 | −5 | 42 | 43 | Pale Yellow | 55 | 6 | 26 | 13 | Pale Yellow |
| N#CC(/N=N/c1ccc(S(N)(=O)=O)cc1)C(=O)c1ccccc1 [Dye D-14] | 84 | −11 | 65 | 52 | Intense Yellow; also recorded: Very Intense Yellow | 56 | 4 | 35 | 21 | Intense Yellow; also recorded: Very Intense |
| N#CC1=NN(c2ccccc2)C(=O)C1/N=N/c1cc(Cl)c(S(N)(=O)=O)cc1Cl [Dye D-18] | 75 | 18 | 66 | 56 | Yellow-Orange | 62 | 6 | 34 | 23 | Yellow-Orange |
| N#CC1=NN(c2ccccc2)C(=O)C1/N=N/c1ccc(C(=O)O)cc1 (stereo not drawn) [A*, reference compound] | 86 | −6 | 41 | 42 | Pale Yellow | 55 | 7 | 26 | 13 | Pale Yellow |
